Like-named read-outs stand apart in the source and are kept apart here.
How the values were obtained:
Type in all cases: physicochemical
[1] = Extraction of LiBr from biomass hydrolysate with n-butanol/hexane
[2] = Precipitation of sugars with anti-solvent (methanol then acetone); conditions: for amount in the precipitated solid / share of the loaded amount in the precipitated solid: 320 mg glucose, 50 mg LiBr, 50 μL water in 1 mL methanol at 80° C., added into 10 mL acetone; for amount in the precipitate: sugar syrup from spruce hydrolysis (˜280 mg glucose, 50 mg LiBr); for amount in the precipitate / share of the syrup's amount in the precipitate: methanol then acetone; for share of the syrup's amount in the precipitate: sugar syrup from spruce hydrolysis
[3] = Separation of LiBr and sugars with ion exclusion chromatography; conditions: LiBr-sugar solution, DOWEX 1×8-400 Br− form, water eluent, FIG. 4
[4] = spruce hydrolysate (4 g spruce), butanol/hexane 7:3, 20 extractions

| SMILES | content of the syrup-like sugar mixture after the extractions [1, 4] [g] | amount in the precipitated solid [2] [mg] | share of the loaded amount in the precipitated solid [2] [%] | amount in the precipitate [2] | share of the syrup's amount in the precipitate [2] [%] | separation from sugars (in words) [3] | content of the syrup-like sugar mixture after the extractions [1] [g] |
| --- | --- | --- | --- | --- | --- | --- | --- |
| O=C[C@H](O)[C@@H](O)[C@H](O)CO [xylose] | 0.075 |  |  |  |  |  |  |
| O=C[C@H](O)[C@@H](O)[C@H](O)[C@H](O)CO [glucose] | 1.4 | 240 | 75 | Approximately 220 mg | 79 |  |  |
| [Br-].[Li+] [LiBr, Lithium bromide] |  | 4.5 | 9 | ~4 mg | 8 | separated very well | 0.260 |
